# At least one compound was matched to its structure with a doubt left.
# System: barnacle cyprids
# Experiment: Barnacle cyprid settlement assay (method of Rittschof et al.), EC50 by probit analysis
# Assay type: in vivo, Balanus amphitrite amphitrite
# Conditions: for EC50: barnacle cyprids not settled/attached to Petri dish; for 95% CONFIDENCE INTERVAL (of EC50): barnacle settlement
# Description: In this case, the defined effect is that the cyprids have not settled and have not attached to the Petri dish. Thus, in the attached data set, the “set” column indicates the total number of cyprid larvae that have settled and attached on the surface of the Petri dish and “non-set” indicates the total number of cyprids that remain swimming in the seawater and have not settled on the surface of the Petri dish.
# Briefly, the barnacle adults are cultured in the laboratory and allowed to spawn naturally. The larvae are harvested and grown in artificial culture systems until they reach the cyprid stage at which time the larvae become competent to attach to surfaces. Once attached, the cyprids transform into a pinhead barnacle, thus becoming permanently attached to the surface. Rittschof D, Clare A S, Gerhart D J, Avelin Mary, Bonavetura J (1991) Barnacle in vitro assays for biologically active substances: toxicity and settlement assays using mass cultured Balanus amphitrite amphitrite Darwin. Biofouling (1992) 6:115-122.
# Five replicates (e.g., a-e) for each concentration and the control were collected.
Structure (SMILES),EC50 [e^−03 mg/ml],95% CONFIDENCE INTERVAL (of EC50)
"CSCCC(O)C(=O)[O-].CSCCC(O)C(=O)[O-].[Cu+2] (stereo not shown) [HMTBA-Cu, copper 2-hydroxy-4-methylthiobutanoate chelate]",1.795,2.202e^−0.3 to 1.429e^−03
"CSCCC(O)C(=O)[O-].CSCCC(O)C(=O)[O-].[Zn+2] (stereo not shown) [HMTBA-Zn, zinc 2-hydroxy-4-methylthiobutanoate chelate]",5.675,7.094e^−03 to 4.401e^−03

# Reference: patent publication US7335248B2, “Marine antifouling coating compositions” (Novus International, Inc., priority 2005, dated 2008)
